No constants are given. Whether binding was seen depends on the method and setting. Binding calls can cover weak binding; strength is not graded here. Tags and fused reporters may be left off the sequences shown.
Biological target: T1, Phytoalexin deficient4 (PAD4), yeast two-hybrid fusion (Arabidopsis) (UniProt Q9S745)
T1 sequence: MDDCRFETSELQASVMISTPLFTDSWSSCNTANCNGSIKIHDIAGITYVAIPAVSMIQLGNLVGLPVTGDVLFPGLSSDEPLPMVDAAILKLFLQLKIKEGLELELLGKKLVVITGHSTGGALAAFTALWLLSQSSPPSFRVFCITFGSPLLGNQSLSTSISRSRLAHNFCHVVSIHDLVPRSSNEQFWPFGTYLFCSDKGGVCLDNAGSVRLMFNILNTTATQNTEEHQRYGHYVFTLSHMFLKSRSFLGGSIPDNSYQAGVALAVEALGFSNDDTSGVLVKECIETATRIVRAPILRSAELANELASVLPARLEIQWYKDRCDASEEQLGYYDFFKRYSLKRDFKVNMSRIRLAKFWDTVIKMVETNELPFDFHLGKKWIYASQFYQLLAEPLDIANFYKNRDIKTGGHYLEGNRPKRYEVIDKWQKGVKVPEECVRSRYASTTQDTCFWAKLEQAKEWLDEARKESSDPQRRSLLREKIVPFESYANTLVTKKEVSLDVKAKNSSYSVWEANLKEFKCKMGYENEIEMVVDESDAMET
Test: two-hybrid; Matchmaker system (Clontech), yeast strain AH109, fusions in pGADT7 and pGBKT7; reporter activation on plates lacking leucine, tryptophan, histidine and adenine, growth recorded after 2-5 days at 30 °C

Sequences of proteins named here, by UniProt entry; tags and fusion partners are left off. A change or cut given only in a name is not applied to a line headed by its entry.
UniProt Q9XF23: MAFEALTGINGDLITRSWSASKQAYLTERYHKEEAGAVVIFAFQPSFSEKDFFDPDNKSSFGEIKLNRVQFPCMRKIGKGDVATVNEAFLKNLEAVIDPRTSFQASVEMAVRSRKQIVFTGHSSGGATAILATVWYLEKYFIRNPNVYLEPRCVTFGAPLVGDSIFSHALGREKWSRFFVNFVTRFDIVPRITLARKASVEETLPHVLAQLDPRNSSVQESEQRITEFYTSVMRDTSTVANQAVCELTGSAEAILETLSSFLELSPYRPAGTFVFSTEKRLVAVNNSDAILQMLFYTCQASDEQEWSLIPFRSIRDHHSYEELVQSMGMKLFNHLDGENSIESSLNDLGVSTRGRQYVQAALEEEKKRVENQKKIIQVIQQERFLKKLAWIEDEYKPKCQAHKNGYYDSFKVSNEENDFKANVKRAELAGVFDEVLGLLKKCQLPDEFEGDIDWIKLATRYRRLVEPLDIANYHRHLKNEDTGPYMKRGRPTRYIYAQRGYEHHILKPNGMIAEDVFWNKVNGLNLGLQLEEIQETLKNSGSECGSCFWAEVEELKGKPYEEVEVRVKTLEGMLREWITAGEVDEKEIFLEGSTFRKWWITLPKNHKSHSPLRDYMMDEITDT

- binding: binds weakly
Substance: EDS1^LLIF lipase-like domain mutant, yeast two-hybrid fusion (from UniProt Q9XF23)
